For at least one entry, the source does not settle the construct or the ends of the probe. Negatives hold for the conditions tested. At least one verdict was read from the data and is not stated in words by the source. Tags and fusion partners may be left off the protein sequences shown.
Target: T1, SloR (UniProt I6L923)
T1 sequence (looked up, limits assumed): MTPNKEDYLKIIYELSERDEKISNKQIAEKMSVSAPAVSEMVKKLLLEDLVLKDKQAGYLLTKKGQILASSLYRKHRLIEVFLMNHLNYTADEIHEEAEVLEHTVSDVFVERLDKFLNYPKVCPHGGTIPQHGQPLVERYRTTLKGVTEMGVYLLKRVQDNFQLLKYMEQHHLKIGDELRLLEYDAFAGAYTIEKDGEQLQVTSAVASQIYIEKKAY
Experiment: EMSA
Settings: EMSA: 60-200 nM SloR, 16 uL, 12% native gel, buffer as cited, recombinant protein

[1] = 15 mM EDTA, label: 5' 32P, letters put together from the description

CTTTTCGCAATCTGATTGTTTAGACATCTCTGATTAATTTTCCATAATCTCTATTGTGTTTTATACTGTCAGTAATTCTTACAAACTCTTTATATTCAGTAATAATAGGTACACCTTTTTTAATTTTTAAGCATACTTAACATATGCTGTTTTTTATGCTATAATGCAATTAACCCAATTATATTAGAAAAGAGATTTTCAAAATG (double strand) [mntH 206-bp promoter probe]
binding result (60 nM SloR, label: 5' 32P): binds | binding result (15 mM EDTA, label: 5' 32P): no binding

ATTTTTAAGCATACTTAACATA (double strand) [mntH.22.SRE1.WT]
binding result (15 mM EDTA, label: 5' 32P in EMSA): no binding

TACTGTCAGTAATTCTTACAAACTCTTTATATTCAGTAATAATAGGTACACCTTTTTTAATTTTTAAGCATACTTAACATATGCTGTTTTTTATGCTATA (double strand) [mntH.100.WT]
binding result (15 mM EDTA, label: 5' 32P): no binding

TCTCTATTGTGTTTTATACTGTCAGTAATTCTTACAAACTCTTTATATTCAGTAATAATAGGTACACCTTTTTTAATTTTTAAGCATACTTAACATATGCTGTTTTTTATGCTATAATGCAATTAACCCAATTATATTAGAAAAGAGATTTTCAAAATG (double strand) [mntH 159-bp promoter probe]
binding result [1]: no binding

AGGTACACCTTTTTTAATTTTTAAGCATACTTAACATATGCTGTTTTTTATGCTATAATGCAATTAACCCAATTATATTAGAAAAGAGATTTTCAAAATG (double strand) [mntH 100-bp deletion amplicon]
binding result [1]: no binding

— paper PMC12096823, “SloR-SRE binding to the S. mutans mntH promoter is cooperative”
